Structures can show the parent of a compound that is named as a salt.
Assay: Urinary biomarkers after γ irradiation of mice (24-h urine, UPLC-TOFMS)
Type: in vivo, Male C57BL\6 mice
Parameters: key to Note: [M − H]− ion in urine according to exposure status: [M − H]− (±10 ppm) either not detected or not statistically significantly different (P ≧ 0.05) according to exposure status; 2: [M − H]− (±10 ppm) elevated (P < 0.05) in urine from mice exposed to 3 Gy; 3: [M − H]− (±10 ppm) elevated (P < 0.05) in urine from mice exposed to 8 Gy; 4: [M − H]− (±10 ppm) elevated (P < 0.05) in urine from mice both exposed to 3 and 8 Gy
Settings: for urinary excretion reduced after irradiation / urinary excretion elevated after irradiation over sham / urinary concentration normalized to creatinine / elevated after γ irradiation: 0-24 h urine; for urinary excretion reduced after irradiation: relative peak area normalized to creatinine; for urinary excretion elevated after irradiation over sham: normalized to creatinine; for Note: [M − H]− ion in urine according to exposure status: mice exposed to 3 or 8 Gy vs controls, creatinine-normalized relative concentrations, t test α = 0.05; for elevated after γ irradiation: 3 and 8 Gy γ irradiation
[1] = 3 Gy irradiated mice, mean±s.d.
[2] = 8 Gy irradiated mice, mean±s.d.

For `Nc1ccn([C@H]2C[C@H](O)[C@@H](CO)O2)c(=O)n1` [2′-Deoxycytidine], the “urinary excretion reduced after irradiation” value (3 Gy γ irradiation) was “five” and the “urinary excretion reduced after irradiation” value (8 Gy γ irradiation) was “three”.

In the case of `O=c1ccn([C@H]2C[C@H](O)[C@@H](CO)O2)c(=O)[nH]1` [2′-Deoxyuridine], the “ratio of 2′-deoxyuridine to 2′deoxycytidine in urine” value (3 Gy) is reported as “approximately 55”, the “urinary excretion elevated after irradiation over sham” value (3 Gy γ irradiation) is reported as 11 fold and the “ratio of 2′-deoxyuridine to 2′deoxycytidine in urine” value (8 Gy) is reported as about 15. For the same molecule, the “urinary excretion elevated after irradiation over sham” value (8 Gy γ irradiation) was “five”.

In the case of `O=c1[nH]c(=O)c2ncn([C@H]3C[C@H](O)[C@@H](CO)O3)c2[nH]1` [2′-Deoxyxanthosine], the “urinary excretion elevated after irradiation over sham” value (3 Gy γ irradiation) is reported as “four” and the “urinary excretion elevated after irradiation over sham” value (8 Gy γ irradiation) is reported as “six”.

In the case of `Cc1c(OS(=O)(=O)O)cccc1C(=O)O` [3-hydroxy-2-methylbenzoic acid 3-O-sulfate], the “urinary excretion elevated after irradiation over sham” value (3 Gy γ irradiation) is reported as 2.5 fold and the “urinary excretion elevated after irradiation over sham” value (8 Gy γ irradiation) is reported as “not elevated”.

For `COc1cc(C(O)C(=O)O)ccc1O` (stereo not shown) [4-Hydroxy-3-methoxymandelic acid], the “Note: [M − H]− ion in urine according to exposure status” value (“Note: [M − H]− ion in urine according” for short) was 1.

In the case of `COc1cc(C(O)CO)ccc1O` (stereo not shown) [4-Hydroxy-3-methoxyphenylglycol], the “Note: [M − H]− ion in urine according” value is reported as 1.

In the case of `O=C(O)Cc1c[nH]c2ccc(O)cc12` [5-Hydroxyindoleacetic acid], the “Note: [M − H]− ion in urine according” value is reported as 3.

For `Nc1nc2nc(O)[nH]c2c(=O)[nH]1` [8-Hydroxyguanine], the “Note: [M − H]− ion in urine according” value was 2.

For `CCCCC[C@H](O)/C=C/[C@@H]1[C@H](C/C=C\CCCC(=O)O)[C@@H](O)C[C@H]1O` [8-Isoprostaglandin F2α], the “Note: [M − H]− ion in urine according” value was 1.

With `O=C(O)CC(O)(CC(=O)O)C(=O)O` [Citric Acid] the “Note: [M − H]− ion in urine according” value was 4.

For `NCC(=O)O` [Glycine], the “Note: [M − H]− ion in urine according” value was 1.

In the case of `O=C(O)CNC(=O)c1ccccc1` [Hippuric Acid], the “Note: [M − H]− ion in urine according” value is reported as 3.

In the case of `COc1cc(CC(=O)O)ccc1O` [Homovanillic acid], the “Note: [M − H]− ion in urine according” value is reported as 1.

In the case of `O=S(=O)(O)Oc1c[nH]c2ccccc12` [Indoxyl sulfate], the “Note: [M − H]− ion in urine according” value is reported as 1.

For `CNCC(O)c1ccc(O)c(OC)c1` (stereo not shown) [Metanephrine], the “Note: [M − H]− ion in urine according” value was 1.

With `CCCCCC(=O)NCC(=O)O` [N-Hexanoylglycine] the “urinary concentration normalized to creatinine” value (“urinary concentration normalized” below) [1] was 643±259 μmol/mmol creatinine, the “elevated after γ irradiation” value was 40-80% and the “urinary concentration normalized” value [2] was 802±117 μmol/mmol creatinine.

In the case of `COc1cc(C(O)CN)ccc1O` (stereo not shown) [Normetanephrine], the “Note: [M − H]− ion in urine according” value is reported as 3.

For `CCCCC[C@H](O)/C=C/[C@H]1OC(O)C[C@H](O)[C@@H]1C/C=C\CCCC(=O)O` (stereo partly shown) [Thromboxane B2], the “Note: [M − H]− ion in urine according” value was 1.

With `CC1(O)C(=O)NC(=O)N([C@H]2C[C@H](O)[C@@H](CO)O2)C1O` (stereo partly shown) [Thymidine glycol] the “Note: [M − H]− ion in urine according” value was 1.

In the case of `CC1(O)C(=O)NC(=O)NC1O` (stereo not shown) [Thymine glycol], the “Note: [M − H]− ion in urine according” value is reported as 1.

With `O=c1[nH]c(=O)c2[nH]cnc2[nH]1` [Xanthine] the “urinary excretion elevated after irradiation over sham” value (3 Gy γ irradiation) was “five” and the “urinary excretion elevated after irradiation over sham” value (8 Gy γ irradiation) was “not after 8 Gy irradiation”.

For `O=c1[nH]c(=O)c2ncn([C@@H]3O[C@H](CO)[C@@H](O)[C@H]3O)c2[nH]1` [Xanthosine], the “urinary excretion elevated after irradiation over sham” value (3 Gy γ irradiation) was “two” and the “urinary excretion elevated after irradiation over sham” value (8 Gy γ irradiation) was “five”.

For `NCCS(=O)(=O)O` [taurine], the “urinary concentration normalized” value (3 Gy irradiated mice) was 8.52±1.90 mmol/mmol creatinine and the “urinary excretion elevated after irradiation over sham” value (8 Gy γ irradiation) was “elevated only after the 8 Gy dose”.

For `Cc1cn([C@H]2C[C@H](O)[C@@H](CO)O2)c(=O)[nH]c1=O` [β-Thymidine], the “urinary concentration normalized” value [1] was 67.7±17.4 μmol/mmol creatinine, the “elevated after γ irradiation” value was 6- to 7 fold and the “urinary concentration normalized” value [2] was 35.6±8.84 μmol/mmol creatinine.
